In PubChem BioAssay AID1439 (NMMLSC, 2008):
Hit rate of the full screen: of about 220,000 compounds, about 770 (0.35%) were called active. Inconclusive results, whose numbers are uncertain, are shown with a selection of clear calls. Cut-off read from the data, not from the text of the source: active = binding response below about 49% or above about 150%; inconclusive = no clear call, values can overlap the other calls; inactive = in between.

The chains behind the UniProt entries cited, without tags or fusion partners.
UniProt P09471, whole entry, looked up: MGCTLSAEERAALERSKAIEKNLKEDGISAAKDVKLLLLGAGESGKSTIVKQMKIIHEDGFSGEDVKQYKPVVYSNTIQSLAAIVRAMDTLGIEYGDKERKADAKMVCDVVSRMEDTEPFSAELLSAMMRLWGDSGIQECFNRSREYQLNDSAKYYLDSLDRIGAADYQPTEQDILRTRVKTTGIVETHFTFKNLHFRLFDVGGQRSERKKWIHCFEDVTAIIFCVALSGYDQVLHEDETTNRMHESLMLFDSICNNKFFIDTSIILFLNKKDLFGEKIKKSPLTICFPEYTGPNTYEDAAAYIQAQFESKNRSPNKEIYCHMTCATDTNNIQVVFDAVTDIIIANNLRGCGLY

biological target: Guanine nucleotide-binding protein G(o) subunit alpha (Homo sapiens) (UniProt P09471); experiment: RGS7-Galphao binding modulators, primary screen, biochemical, multiplexed bead flow cytometry (AID 1439); details: at 10 µM, actives lie on both sides;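 note: fluorescent Galphao held in activated GDP-AlF4 state binding bead-coupled RGS7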

Compound	binding response (% of control)
O=c1[nH]c2ccccc2c(O)c1-[n+]1ccccc1	inconclusive: 60.2%
CC(=O)c1ccccc1OC(=O)CCN1C(=O)c2ccccc2C1=O	inconclusive: 123%
CN(C)CCCN(C(=O)c1ccco1)c1nc2c(F)cccc2s1	inconclusive: 89.2%
Cc1csc2c(=O)sc(NC(=O)c3ccc(F)cc3)nc12	inconclusive: 103%
Cn1c2ccc(F)cc2c2nnc(NN)nc21	inconclusive: 93.5%
Cc1cc(Cc2ccc(N)c(C)c2)ccc1N	inconclusive: 93.2%
CN(C)S(=O)(=O)c1cc(NC(=O)c2cc(=O)[nH]c3ccccc23)ccc1Cl	inconclusive: 102%
CCn1c(CNc2ccc(Cl)cc2)nnc1SCc1ccccc1	inactive: 101%
CC(=O)Cn1nnc2sc3c(c2c1=O)CCC(C(C)(C)C)C3 (stereo unspecified)	inconclusive: 117%
COc1cc(O)sc1C=Nc1ccc(Cl)cc1	inconclusive: 88.9%
COc1cc(S(=O)(=O)N2CCOCC2)ccc1NC(=O)CSc1n[nH]c(=O)[nH]c1=O	inconclusive: 103%
CCN(Cc1ccccc1)C(=O)CSc1ccccc1C(=O)O	inconclusive: 101%
CCc1ccc(OCC(=O)NC(=S)Nc2ccc(C(=O)O)cc2)cc1	inconclusive: -19.3%
O=S(=O)(Nc1nccs1)c1ccc(NCc2cc(Br)cc(Br)c2O)cc1	inconclusive: 112%
O=C(CSc1ccc2ccccc2n1)NCc1ccc2c(c1)OCO2	inconclusive: -489%
COc1cc(C(=O)Nc2nc(C)cc(C)n2)cc(OC)c1OC	inconclusive: 140%
CCOC(=O)Cc1csc(N/C(=N/S(=O)(=O)c2cc(Br)ccc2OCC)c2ccccc2)n1	inactive: 99.8%
COc1ccc(NC(=O)c2nc[nH]c2C(=O)N[C@@H](CC(C)C)C(=O)OC(C)(C)C)cc1	inconclusive: 112%
COc1cc2c3c(c1OC)C1(C=CC(=O)C=C1)CC3N(C(=O)c1ccccc1)CC2 (stereo unspecified)	active: 156% [activator]
CC(C)CN1CCC(=O)N(CCSc2ccc(Br)cc2)CC1	inconclusive: 84%
CC1(CO)COC(c2ccccc2)=N1 (stereo unspecified)	inconclusive: 629%
CCCC(C)NCC(=O)Nc1ccccc1-c1ccccc1 (stereo unspecified)	inactive: 110%
Cc1ccc(-n2c(C)cc(C(=O)COc3c(CO)cc(F)cc3CO)c2C)cc1C	inactive: 115%

Compound	binding response (% of control)
O=C(NCCCn1ccnc1)c1ccc(N2CCCCCC2)c([N+](=O)[O-])c1	inconclusive: 77.8%
Cc1ccc(NNC(=O)c2cccs2)cc1Cl	inconclusive: 95.8%
CC(C)(C)C(=O)Nc1nnc(-c2ccccc2)c(-c2ccccc2)n1	inconclusive: 45.5%
CN1CCCN(C(=O)/C=C/c2ccc(Cl)cc2Cl)CC1	inconclusive: 84.4%
O=C(c1ccc2c3n(nc2c1)-c1ccccc1CO3)N1CCCCC1	inconclusive: 123%
CCOc1ccc(S(=O)(=O)/N=C(\N)c2ccccc2)cc1	inconclusive: 95.6%
Cc1cc(C)c(/C=C(\C#N)S(=O)(=O)c2ccccc2)[nH]1	inconclusive: 119%
CCS(=O)(=O)N1N=C(c2cccs2)CC1c1cc2cc(C)ccc2nc1Cl (stereo unspecified)	inconclusive: 143%
COCCN1C(=O)c2ccccc2C(C(=O)Nc2ccc3c(c2)OCCO3)C1c1ccc(F)cc1 (stereo unspecified)	inactive: 115%
CN(CCn1ccnc1)Cc1cn(Cc2ccccc2)nc1-c1ccc2c(c1)OCO2	inconclusive: 140%
O=C(CNCc1cccnc1)Nc1cc(C(F)(F)F)ccc1N1CCOCC1	inconclusive: 87.2%
CSc1nc(N)c2c(C)c(C)sc2n1	inactive: 95.5%
Cc1ccc(NC(=S)NN(C)c2cc(C)nc(C)n2)cc1	inactive: 99.2%
Cc1onc(-c2ccccc2)c1C(=O)N/N=C/c1cccs1	inconclusive: 82.5%
CC(=O)NNc1ncnc2c1cnn2-c1ccc(C)c(Cl)c1	inactive: 98.2%
Cc1nc2ccc(C(=O)N/N=C/c3cc([N+](=O)[O-])ccc3O)cc2[nH]1	inconclusive: -78.8%
O=c1cnnc(Nc2ccccc2)[nH]1	inconclusive: 95.3%
Cc1ccc2ccc(C(Nc3cccc(C(F)(F)F)c3)c3cccnc3)c(O)c2n1 (stereo unspecified)	inconclusive: 95.2%
Cc1c(NC(=O)C(C)OC(=O)/C=C/c2ccccc2)c(=O)n(-c2ccccc2)n1C (stereo unspecified)	inconclusive: 113%
O=C(Cc1ccccc1)N1N=C(c2ccncc2)CC1(O)C(F)(F)F (stereo unspecified)	inconclusive: 97%
CCn1c(=O)cc(C(F)(F)F)[nH]c1=S	inconclusive: 102%
O=C1c2ccccc2NC(c2ccc([N+](=O)[O-])cc2)N1O (stereo unspecified)	inconclusive: 90.2%
Cc1ccc(-n2cnc(N)c2C(=O)c2cccc([N+](=O)[O-])c2)cc1	inconclusive: 95.3%

Compound	binding response (% of control)
Cc1cc(C)c(S(=O)(=O)N2CCCOC2CNC(=O)C(=O)NCc2ccco2)c(C)c1 (stereo unspecified)	inactive: 95.6%
CC(CNS(=O)(=O)c1ccccc1)Sc1nncn1C (stereo unspecified)	inconclusive: 89.2%
c1ccc(C2[C@H]3CN(Cc4cccnc4)[C@H](c4ccccc4)C34CC2(c2cccnc2)C4)cc1 (stereo partly specified)	inconclusive: 109%
COCCN=C1Sc2nc3cc(C)c(C)cc3cc2CN1Cc1cccs1	inconclusive: 114%
O=C(O)CC/C(=N\NC(=O)CNC(=O)c1ccc(F)cc1)c1ccccc1	inconclusive: 117%
O=C(Nc1nccs1)c1ccc(-c2ccc(Cl)cc2)o1	inconclusive: 113%
Cc1[nH]nc(S(=O)CC(=O)O)c1[N+](=O)[O-] (stereo unspecified)	inactive: 104%
O=C(NC(=S)Nc1cccc(O)c1)c1ccco1	inconclusive: -170%
COc1ccccc1NNC(=O)C(O)(c1ccccc1)c1ccccc1	inconclusive: 127%
CCC(C)C(NC(=O)c1ccccc1NC(=O)c1ccco1)C(=O)NNC(=O)c1ccncc1 (stereo unspecified)	inconclusive: 57.8%
CC/C(O)=C1\C(=O)CCCC1=NCc1nc2ccccc2[nH]1	inactive: 96.7%
Cc1ccc(NC(=O)CN(C)C(=O)Cn2ccsc2=N)cc1	inconclusive: 87.6%
O=C(Nc1ccc(Br)cc1)c1csc(-c2ccncc2)n1	inconclusive: 89.6%
CN(C)c1ccc(/C=N/NC(N)=S)cc1[N+](=O)[O-]	inactive: 112%
COc1ccc(-n2c(C)nc3sc4c(c3c2=O)CCCC4)cc1	inconclusive: 90.4%
O=C(CSCc1c(Cl)cccc1Cl)NN=C1CCCC1	inconclusive: 103%
O=C1CC(c2ccccc2)Oc2cc(O)cc(O)c21 (stereo unspecified)	inconclusive: 82.8%
CCOC(=O)NC(=O)COC(=O)c1ccc(O)cc1	inconclusive: 104%
CC(=O)Nc1ccc(NC(=O)C2CCN(C(=O)c3ccc([N+](=O)[O-])cc3)CC2)cc1	inconclusive: 102%
COc1ccc(C(=O)Nc2ccc(S(=O)(=O)Nc3cc(C)nc(C)n3)cc2)cc1	inconclusive: 92.3%
CCOC(=O)/C=C/C(=O)OCC(=O)Nc1cccc(Br)c1	inconclusive: 111%
CC(=O)c1cccc(NC(=S)NCCCCc2ccccc2)c1	inactive: 99.4%
NC(=O)c1sc(-c2ccsc2)cc1NS(=O)(=O)c1ccc(C(F)(F)F)cc1	inconclusive: 76.6%

Nothing new here: four of the compounds above.
Compound	binding response (% of control)
O=C(O)CC/C(=N\NC(=O)CNC(=O)c1ccc(F)cc1)c1ccccc1	inconclusive: 117%
O=C(Nc1nccs1)c1ccc(-c2ccc(Cl)cc2)o1	inconclusive: 113%
Cc1[nH]nc(S(=O)CC(=O)O)c1[N+](=O)[O-] (stereo unspecified)	inactive: 104%
O=C(NC(=S)Nc1cccc(O)c1)c1ccco1	inconclusive: -170%

Further records follow.

Compound	binding response (% of control)
COc1ccc(NC(=O)C2=CCN(S(=O)(=O)c3ccccc3)CC2)cc1OC	inconclusive: 120%
COc1ccc(/C=N/NC(=O)CNc2ccc(Br)cc2)c(C(=O)O)c1OC	inactive: 103%
COc1ccccc1Cn1c(C)nc2ccccc21	inconclusive: 87.7%
COc1cc2c(c(OC)c1OC)-c1c(cc3c(c1OC)OCO3)[C@@H](OC(C)=O)[C@H](C)[C@H](C)C2	inconclusive: 89.4%
NC(=O)N/N=C/c1ccc(-c2ccc([N+](=O)[O-])cc2)o1	inconclusive: 77.2%
O=C(Nc1ccc(S(=O)(=O)Nc2ncccn2)cc1)c1ccc(N2CCCC2=O)cc1	inconclusive: 100%
C[C@H](NC(=O)OCc1ccccc1)C(=O)NNC(=O)[C@H](Cc1ccccc1)NC(=O)OC(C)(C)C	inconclusive: 108%
Cc1nonc1OCCn1c([N+](=O)[O-])cnc1C	inconclusive: 64.5%
COc1cc(C2C3=C(CCCC3=O)Nc3[nH]n(-c4ccccc4)c(=O)c32)ccc1OC(C)=O (stereo unspecified)	inactive: 98.6%
CCc1ccc(C(=O)CN2CCSC2=N)cc1	inactive: 97.3%
COC(=O)c1ccc(C(=S)N2CCCCC2)cc1	inconclusive: 105%
COc1ccccc1N1CCN(Cc2cn[nH]c2-c2ccc(F)cc2)CC1	inconclusive: 82.8%
CC(=O)NC(=S)Nc1ccc(S(=O)(=O)Nc2ncccn2)cc1	inconclusive: 47.1%
NC1=NC(c2cn[nH]c2-c2cccc(F)c2)n2c(nc3ccccc32)N1 (stereo unspecified)	inconclusive: 80.4%
O=C(CN1CCCC1)Nc1ccc(Cl)cc1C(F)(F)F	inconclusive: 73.3%
CN=C1SC(CC(=O)Nc2ccc(F)cc2F)C(=O)N1/N=C/c1ccc(OC(F)F)c(OC)c1 (stereo unspecified)	inconclusive: 76.6%
Cn1c(=O)[nH]c(=O)c2c1nc(CN1CCN(c3ccc(F)cc3)CC1)n2CCN1CCOCC1	inconclusive: 61.5%
CCCn1c(CCC(=O)O)nc2cc(S(N)(=O)=O)ccc21	inconclusive: 122%
O=C(NCC1CCCO1)c1cc(C(=O)C2CCCCC2)c[nH]1 (stereo unspecified)	inconclusive: 91.7%
Cc1ccc(/C=N/n2c(-c3cccc(Cl)c3)n[nH]c2=S)o1	inconclusive: 101%
CCOC(=O)Cc1csc(NC(=O)CC(C)(C)CC(=O)O)n1	inconclusive: 128%
COC(=O)CCNS(=O)(=O)c1ccc2ccccc2c1	inactive: 130%
